PubChem BioAssay AID1224830 | NIAID | 2016

Test: 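Host factors that control LPS-induced TNF expression in human macrophages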 (primary screen)
Cell system: human THP-1 monocytic leukaemia cells, TNF dual-luciferase reporter clone, PMA-differentiated to macrophage-like cells
Reagents: siRNA pool against human genes, 50 nM
Timing: LPS for 4 h, given about 3 days after siRNA transfection
Treatment: bacterial LPS (TLR4 ligand), 10 ng/ml
Measured: 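Ratio of firefly to renilla light, scaled to the plate median and expressed as a robust z-score per replicate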
Direction: TNF reporter robust z-score: higher = stronger TNF reporter response to LPS
Active means: 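a well is active when its z-score exceeds 2.8 or falls below -1.5; control wells carry no call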
The deposit covers about 18,000 reagents; shown is a random part of them. Of all reagents, about 2,900 (16%) got an active call. 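Calls are made per well; low scores hint the gene aids the LPS response, high scores that it dampens it.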 Repeated entries: four replicate wells of each siRNA pool.

With knock-down of SYCP1, the record shows TNF reporter robust z-score -0.02; inactive.
Knock-down of SYCP1 resulted in: TNF reporter robust z-score -0.52; inactive.
SYCP1 showed TNF reporter robust z-score -0.23; inactive.
After knock-down of SYCP1 the results were TNF reporter robust z-score 0.86; inactive.
After knock-down of PRRG2, the screen gave TNF reporter robust z-score 0.33; inactive.
After knock-down of PRRG2 the results were TNF reporter robust z-score 0.37; inactive.
Knock-down of PRRG2 came out at: TNF reporter robust z-score 1.75; inactive.
Silencing of PRRG2 gave: TNF reporter robust z-score 1.34; inactive.
Against RARS1, the entry reads TNF reporter robust z-score -1.16; inactive.
Depletion of RARS1 gave: TNF reporter robust z-score -0.29; inactive.
Silencing of RARS1 came out at: TNF reporter robust z-score -0.81; inactive.
With knock-down of RARS1 the results were TNF reporter robust z-score -0.88; inactive.
For DLX1 the deposit lists TNF reporter robust z-score -1.01; inactive.
DLX1 gave TNF reporter robust z-score 0.22; inactive.
DLX1 scored TNF reporter robust z-score -0.99; inactive.
Knock-down of DLX1 gave: TNF reporter robust z-score -0.83; inactive.
After knock-down of H2AX the results were TNF reporter robust z-score -0.03; inactive.
H2AX gave TNF reporter robust z-score 0.9; inactive.
After knock-down of H2AX the results were TNF reporter robust z-score 0.46; inactive.
Silencing of H2AX gave: TNF reporter robust z-score 1.2; inactive.
MTRR gave TNF reporter robust z-score -0.76; inactive.
Depletion of MTRR resulted in: TNF reporter robust z-score 0.17; inactive.
MTRR scored TNF reporter robust z-score -0.81; inactive.
For MTRR, the values are TNF reporter robust z-score -0.89; inactive.
Against ANAPC13 the deposit lists TNF reporter robust z-score 0.49; inactive.
ANAPC13 scored TNF reporter robust z-score 0.44; inactive.
After knock-down of ANAPC13 the results were TNF reporter robust z-score 0.4; inactive.
With knock-down of ANAPC13, the record shows TNF reporter robust z-score 0.18; inactive.
Depletion of SCAP gave: TNF reporter robust z-score -0.03; inactive.
For SCAP, the values are TNF reporter robust z-score 0.43; inactive.
For SCAP the deposit lists TNF reporter robust z-score -0.2; inactive.
With knock-down of SCAP, the record shows TNF reporter robust z-score -0.55; inactive.
Knock-down of C6orf118 came out at: TNF reporter robust z-score 1.05; inactive.
Silencing of C6orf118 gave: TNF reporter robust z-score 2.47; inactive.
For C6orf118, the entry reads TNF reporter robust z-score 0.83; inactive.
After knock-down of C6orf118, the screen gave TNF reporter robust z-score -0.32; inactive.
SNX32 showed TNF reporter robust z-score 1.26; inactive.
With knock-down of SNX32, the screen gave TNF reporter robust z-score 0.82; inactive.
Depletion of SNX32 came out at: TNF reporter robust z-score 0.22; inactive.
SNX32 gave TNF reporter robust z-score 0.89; inactive.
With knock-down of LHFPL6, the record shows TNF reporter robust z-score -1.09; inactive.
LHFPL6 scored TNF reporter robust z-score -1.21; inactive.
For LHFPL6, the entry reads TNF reporter robust z-score -1.08; inactive.
With knock-down of LHFPL6 the results were TNF reporter robust z-score -0.85; inactive.
Against FXYD1, the entry reads TNF reporter robust z-score -0.59; inactive.
FXYD1 showed TNF reporter robust z-score -0.33; inactive.
Silencing of FXYD1 resulted in: TNF reporter robust z-score -0.07; inactive.
FXYD1 showed TNF reporter robust z-score 1.31; inactive.
Against FAAH2 the deposit lists TNF reporter robust z-score 0.84; inactive.
For FAAH2, the entry reads TNF reporter robust z-score 0.81; inactive.
FAAH2 gave TNF reporter robust z-score -1.24; inactive.
SYT3 scored TNF reporter robust z-score -0.17; inactive.
Against SYT3 the deposit lists TNF reporter robust z-score 1.32; inactive.
With knock-down of SYT3, the screen gave TNF reporter robust z-score 0.31; inactive.
SYT3 scored TNF reporter robust z-score 0.07; inactive.
Against SRD5A1, the entry reads TNF reporter robust z-score -0.39; inactive.
Against SRD5A1, the values are TNF reporter robust z-score 0.16; inactive.
After knock-down of SRD5A1, the record shows TNF reporter robust z-score 0.35; inactive.
With knock-down of SRD5A1 the results were TNF reporter robust z-score 1.1; inactive.
For PLEKHG6, the entry reads TNF reporter robust z-score -0.88; inactive.
Against PLEKHG6, the values are TNF reporter robust z-score -0.65; inactive.
With knock-down of PLEKHG6, the screen gave TNF reporter robust z-score -0.34; inactive.

4 neighbouring reagents from above, for reference:
LHFPL6 — TNF reporter robust z-score = -1.09; activity call = inactive
LHFPL6 — TNF reporter robust z-score = -1.21; activity call = inactive
LHFPL6 — TNF reporter robust z-score = -1.08; activity call = inactive
LHFPL6 — TNF reporter robust z-score = -0.85; activity call = inactive
